## Cell number after 72 h of treatment

Drugs:
cediranib: COc1cc2c(Oc3ccc4[nH]c(C)cc4c3F)ncnc2cc1OCCCN1CCCC1 at 2000 nM
bortezomib: CC(C)C[C@H](NC(=O)[C@H](Cc1ccccc1)NC(=O)c1cnccn1)B(O)O at 5 nM
PLX4720: CCCS(=O)(=O)Nc1ccc(F)c(C(=O)c2c[nH]c3ncc(Cl)cc23)c1F at 400 nM
U73122: COc1ccc2c(c1)CCC1C2CCC2(C)C(NCCCCCCN3C(=O)C=CC3=O)CCC12 (stereo not shown) at 2000 nM
tanespimycin: C=CCNC1=C2C[C@@H](C)C[C@H](OC)[C@H](O)[C@@H](C)/C=C(\C)[C@H](OC(N)=O)[C@@H](OC)/C=C\C=C(/C)C(=O)NC(=CC1=O)C2=O at 10 nM
embelin: CCCCCCCCCCCC1=C(O)C(=O)C=C(O)C1=O at 6000 nM
lenalidomide: Nc1cccc2c1CN(C1CCC(=O)NC1=O)C2=O (stereo not shown) at 5000 nM
vismodegib: CS(=O)(=O)c1ccc(C(=O)Nc2ccc(Cl)c(-c3ccccn3)c2)c(Cl)c1 at 5000 nM
AZD7762: NC(=O)Nc1cc(-c2cccc(F)c2)sc1C(=O)N[C@H]1CCCNC1 at 100 nM

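The test systems are human melanoma cell lines, treated with two drugs together for 72 h and then stained and imaged. Values are the number of DAPI-stained nuclei as a percentage of the DMSO control: 100 is no effect, lower means fewer cells. Concentrations were fixed for each drug; these are the higher of two levels. These are primary screening values without error estimates.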 An unselected part of the screen is shown.

| Combination | WM3619 | WM451Lu | C32 | COLO 829 | COLO 792 |
|---|---|---|---|---|---|
| PLX4720 + cediranib | 75.9 | 60.8 | 86.0 | 65.2 | 65.0 |
| lenalidomide + tanespimycin | 52.7 | 59.2 | 16.2 | 78.9 | 75.7 |
| U73122 + tanespimycin | 51.3 | 82.6 | 21.6 | 113 | 90.0 |
| bortezomib + vismodegib | 3.9 | 19.6 | 31.2 | 4.8 | 25.8 |
| embelin + lenalidomide | 94.0 | 97.4 | 90.0 | 59.9 | 80.9 |
| AZD7762 + bortezomib | 8.4 | 26.9 | 30.1 | 12.5 | 28.1 |
| vismodegib + lenalidomide | 98.2 | 114 | 113 | 91.4 | 121 |
| tanespimycin + embelin | 44.8 | 45.7 | 9.8 | 77.9 | 55.7 |
| embelin + vismodegib | 77.9 | 95.6 | 111 | 73.7 | 104 |
| U73122 + vismodegib | 39.6 | 105 | 72.3 | 86.1 | 103 |
| tanespimycin + PLX4720 | 60.2 | 54.7 | 38.7 | 61.5 | 80.8 |
| lenalidomide + bortezomib | 11.5 | 34.3 | 35.8 | 12.1 | 29.7 |
| U73122 + bortezomib | 3.3 | 27.3 | 8.1 | 22.7 | 86.0 |
| bortezomib + PLX4720 | 4.2 | 26.1 | 31.5 | 21.2 | 29.4 |
| PLX4720 + U73122 | 112 | 86.6 | 77.0 | 108 | 125 |
| vismodegib + cediranib | 110 | 100 | 91.3 | 104 | 72.8 |
| tanespimycin + cediranib | 52.9 | 71.3 | 10.5 | 90.0 | 57.7 |
| bortezomib + embelin | 83.0 | 77.2 | 94.4 | 84.9 | 88.6 |
| embelin + cediranib | 102 | 114 | 104 | 82.5 | 74.2 |
| vismodegib + PLX4720 | 76.9 | 65.3 | 76.6 | 92.2 | 93.2 |
| vismodegib + tanespimycin | 57.8 | 63.7 | 29.9 | 78.0 | 87.1 |
| lenalidomide + PLX4720 | 99.6 | 66.6 | 86.5 | 89.4 | 136 |
| AZD7762 + tanespimycin | 40.5 | 35.1 | 19.2 | 59.0 | 45.8 |
| embelin + PLX4720 | 83.2 | 79.0 | 82.3 | 82.3 | 96.8 |

Once more, the final 3:

Combination	WM3619	WM451Lu	C32	COLO 829	COLO 792
lenalidomide + PLX4720	99.6	66.6	86.5	89.4	136
AZD7762 + tanespimycin	40.5	35.1	19.2	59.0	45.8
embelin + PLX4720	83.2	79.0	82.3	82.3	96.8

Data from the primary screen of doi:10.1371/journal.pone.0140310, rounded.